Tests used:
[1] = Serum leptin levels by ELISA after injection of hexamers; assay type: in vivo, mice; details: blood serum 24 hours post injection
C57/BL6 mice = experiment: Object-place-context (OPC) recognition task, episodic-like memory; assay type: in vivo; details: 100 μl IP of 7.8 nM/ml; sample and test phases
Method: FIG. 7A, FIG. 7B, FIG. 7C and FIG. 7D show Leptin (116-130) enhances episodic-like memory. FIG. 7A: object-place-context task used to assess episodic-like memory. There are 2 sample phases in which mice are exposed to different copies of 2 different objects (star and hexagon) and allowed to explore for 3 min. In the test phase they see 2 new copies of 1 of the objects. The arrow points to the object that has not been previously seen in that place within that context. FIG. 7B: mean±SEM discrimination index for the 3 groups. *P<0.05. FIG. 7C: total exploration time in the test phase is not different between groups. FIG. 7D: exploration of the novel and familiar objects in the test phase; treatment with leptin or the leptin fragment (116-130) enhanced performance on the episodic-like memory test.
To further assess its therapeutic potential we next asked if this fragment has similar cognitive enhancing properties to the whole leptin molecule. Previous studies indicate that leptin enhances hippocampal-dependent memory (Oomura et al. 2006; Farr et al. 2006), whereas resistance to lep-tin results in impaired spatial memory (Li et al. 2002). We used the object-place-context (OPC) recognition task which models human episodic memory, the first cognitive process to be compromised in the early stages of AD (Swainson et al. 2001). […]

Substance	serum level of native leptin [1]	overall exploration time (C57/BL6 mice)
CSLPQT (listed as Mus musculus) [leptin (117-122)]	did not significantly alter the level of native leptin	
SCSLPQ (listed as Mus musculus) [leptin (116-121)]	did not significantly alter the level of native leptin	
SCSLPQTSGLQKPES (listed as Mus musculus) [leptin (116-130)]		no change in total levels of exploration between groups
leptin: the metabolic hormone leptin, whole (full length) leptin molecule; human leptin from Sigma in SH-SY5Y work		no change in total levels of exploration between groups

Source: US20200255492A1, “LEPTIN PEPTIDES AND THEIR USE FOR TREATING NEUROLOGICAL DISORDERS” (UNIVERSITY OF DUNDEE, priority 2017, published 2020)
